Reference: patent US20200031892A1, “COMPOSITION COMPRISING NEUREGULIN FOR ORGAN PERFUSION, PRESERVATION OR REPERFUSION, AND USE THEREOF” (Zensun (Shanghai) Science & Technology, Co., Ltd., priority 2007, published 2020)
At least one structure is not confirmed: it was looked up by name or label, or the drawing left a doubt.

Key:
rat hearts = assay: Cardiac function of isolated rat hearts after 6 hours' cold storage in preservation solution; conditions: 0.1 μM wortmannin for 15 min before storage in Celsior with 14 nM NRG
AKT = assay: Western blot of AKT phosphorylation in stored heart tissue; design: species or system rat; conditions: preincubation with 0.1 μM wortmannin before storage in Celsior containing neuregulin for 6 hours

COC[C@H]1OC(=O)c2coc3c2[C@@]1(C)C1=C(C3=O)[C@@H]2CCC(=O)[C@@]2(C)C[C@H]1OC(C)=O [wortmannin]
neuregulin's effect on heart after preincubation with wortmannin (rat hearts): completely blocked
AKT phosphorylation in heart tissue (FIG. 2) (AKT): almost fully inhibited
